Experimental data reported in PubChem BioAssay AID1487 (National Center for Advancing Translational Sciences (NCATS), 2009).
Some of the results follow. The main result of the screen is listed elsewhere. These columns were measured beside it and carry no call. Most of these compounds were active or inconclusive in the main read-out, so they are no random draw. Potencies come from curve fits of mixed quality, noted in brackets.

Assay: qHTS Assay for Modulators of Lamin A Splicing
Conditions: HeLa LMNA splicing GFP/RFP minigene ratio, 48 h
Outline: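 Read-out is the ratio of GFP to DsRed2 object intensity, acquired by 488 nm laser-scanning cytometry on HeLa lamin A-EGFP minigene reporter cells. Compound incubation 48 hrs at 37 °C in Opti-MEM with 2% FBS; DMSO 0.5% final.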

[1] = measured here: GFP splicing reporter channel
[2] = measured here: RFP viability control channel

Structure (SMILES)	AC50 [1]	AC50 [2]
COc1cccc(OCC(=O)NC2CC(=O)N(c3cccc(OC)c3)C2)c1 (centres undefined)	35.5 µM [rising, partial curve, poor fit]	25.1 µM [rising, single point]
CN1C(=O)/C(=N\OC(=O)c2cccc3ccccc23)c2ccccc21	35.5 µM [falling, single point]	35.5 µM [falling, single point]
NC(=O)N1c2ccccc2CC(=O)c2ccccc21	2.51 µM [rising, partial curve, poor fit]	
COCCNC(=S)N(CCc1c(C)[nH]c2ccc(C)cc12)Cc1cc(OC)c(OC)c(OC)c1	10 µM [rising, partial curve]	11.2 µM [rising, partial curve]
CCN1CCN(CC(=O)c2cc(Cl)ccc2Cl)CC1		4.47 µM [falling, full curve, poor fit]
O=C(OCCOc1ccc(Br)cc1)c1ccc(Cl)nc1		0.00316 µM [falling, full curve, poor fit]
Cc1cc(C)c(NC(=O)CS(=O)CC(=O)N2CCN(c3ccc(F)cc3)CC2)c(C)c1 (centres undefined)		35.5 µM [rising, single point]
O=C(Nc1nc(-c2ccccc2)cs1)NC1CCCCC1		35.5 µM [rising, single point]
COc1ccc(-n2ccnc2SCC(=O)NCc2ccc3c(c2)OCO3)cc1	20 µM [rising, single point]	
O=C(O)CCC(=O)O	10 µM [falling, single point]	0.316 µM [falling, single point]
NNC(=S)NCc1ccc2c(c1)OCO2	0.0224 µM [falling, full curve, poor fit]	
CN(C)S(=O)(=O)c1cccc(NC(=O)COC(=O)c2cc(-c3cccc(Br)c3)nc3ccccc23)c1		12.6 µM [rising, single point]
CCOc1ccc(/C=N/OCC(=O)Nc2ccc(OCc3ccccc3)cc2)cc1OC	11.2 µM [rising, partial curve]	14.1 µM [rising, partial curve]
N#Cc1cc2c(nc1SCc1cccnc1)CCCC2	0.355 µM [rising, full curve, poor fit]	4.47 µM [rising, single point]
Cc1nc2ccccc2c2oc(C(=O)NC3CC3)cc12		35.5 µM [rising, single point]
CCOC(=O)Cc1csc(SCc2cc(=O)oc3cc(O)ccc23)n1		12.6 µM [rising, single point]
CC(OC(=O)c1nn(C(C)C)c(=O)c2ccccc12)C(=O)Nc1ncc(Cl)cc1Cl (centres undefined)		5.62 µM [rising, single point]
CCOc1ccc(S(=O)(=O)N2CCN(c3ccc(C)cc3C)CC2)cc1		22.4 µM [rising, single point]
CCOC(=O)c1sc(-c2ccccn2)nc1C		0.0447 µM [falling, full curve]

Among those listed so far, five contain a halogen.
Structure (SMILES)	AC50 [1]	AC50 [2]
CCN1CCN(CC(=O)c2cc(Cl)ccc2Cl)CC1		4.47 µM [falling, full curve, poor fit]
O=C(OCCOc1ccc(Br)cc1)c1ccc(Cl)nc1		0.00316 µM [falling, full curve, poor fit]
Cc1cc(C)c(NC(=O)CS(=O)CC(=O)N2CCN(c3ccc(F)cc3)CC2)c(C)c1 (centres undefined)		35.5 µM [rising, single point]
CN(C)S(=O)(=O)c1cccc(NC(=O)COC(=O)c2cc(-c3cccc(Br)c3)nc3ccccc23)c1		12.6 µM [rising, single point]
CC(OC(=O)c1nn(C(C)C)c(=O)c2ccccc12)C(=O)Nc1ncc(Cl)cc1Cl (centres undefined)		5.62 µM [rising, single point]

Further structures follow.

Structure (SMILES)	AC50 [1]	AC50 [2]
O=C1C2C3c4ccccc4C(c4ccccc43)C2C(=O)N1Cc1ccco1 (centres undefined)	14.1 µM [rising, single point]	22.4 µM [rising, partial curve]
COc1ccc(N2CCN(C(CNC(=O)c3ccc4c(c3)OCO4)c3ccco3)CC2)cc1 (centres undefined)	2.82 µM [falling, partial curve]	0.447 µM [falling, partial curve, poor fit]
COc1ccc(NC(=S)NNc2ccc([N+](=O)[O-])cc2S(=O)(=O)Nc2ccc(C)cc2C)cc1		12.6 µM [rising, partial curve]
OCCNc1ncnc2c1sc1nc(N3CCOCC3)c3c(c12)CCC3	10 µM [falling, partial curve]	
O=C(Nc1ccc(Cl)cc1)Nc1nc(-c2sccc2Br)cs1	11.2 µM [falling, partial curve]	11.2 µM [falling, partial curve]
CCOc1ccc(/C=C2/SC(=S)N(n3c(C)ccc3C)C2=O)cc1		31.6 µM [rising, single point]
CCOC(=O)c1c(-c2ccccc2)oc2ccc(O)c(CN3CCOCC3)c12		20 µM [rising, single point]
CC(C)(C)c1ccc(-c2n[nH]c(=S)n2C2CCCC2)cc1		3.16 µM [rising, single point]
CC(=O)Nc1c(C)nn(-c2ccccc2)c1N1CCC(C(=O)Nc2cc(F)ccc2F)CC1	0.891 µM [rising, full curve, poor fit]	
CC(=O)Nc1ccc(S(=O)(=O)N2CCN(Cc3cccc([N+](=O)[O-])c3)CC2)cc1		5.62 µM [rising, single point]
COc1ccc(S(=O)(=O)c2c(Nc3ccc(C)cc3C)sc(C(=O)c3ccc(F)cc3)c2N)cc1	2.82 µM [rising, full curve, poor fit]	2.51 µM [rising, full curve]
O=C1CC(c2c[nH]c3ccccc23)C(=O)N1 (centres undefined)	0.00447 µM [rising, full curve, poor fit]	0.00355 µM [rising, full curve, poor fit]
Cc1ccc(C)c2c1[nH]c1ccc([N+](=O)[O-])cc12		35.5 µM [rising, single point]
COc1ccc(CCNC(=S)Nc2cccc(C)c2)cc1		22.4 µM [rising, single point]
O=C1C(=C(c2ccccc2)c2ccccc2)Nc2ccccc21		31.6 µM [rising, single point]
O=C(CSc1nc2c([nH]c3ccccc32)c(=O)n1-c1cccc(Cl)c1)c1ccccc1	8.91 µM [falling, partial curve, poor fit]	7.94 µM [falling, partial curve, poor fit]
CSCCC(N)C(=O)O (centres undefined)	10 µM [rising, partial curve, poor fit]	
O=c1[nH][nH]c(=O)c2c(NS(=O)(=O)c3ccccc3)cccc12		4.47 µM [rising, single point]
